From patent publication US8921362B2, “6,7-dialkoxy quinazoline derivatives and methods of treating drug resistant and other tumors” (Natco Pharma Limited, priority 2008, dated 2014)
At least one structure is not confirmed: it was looked up by name or label, or the drawing left a doubt.

Key:
H1299 and A549 cells = experiment: Matrigel invasion assay; type: cell-based, human; conditions: 48 hr treatment, FIG. 2
Protocol: The in vitro invasiveness of H1299 and A549 cells in the presence of various concentrations of NRC compounds (as determined by MTT assay) was assessed using a modified Boyden chamber assay. Cells were treated with these compounds for 48 hr. 1×10^6 cells were suspended in 600 μl of serum-free medium supplemented with 0.2% BSA and placed in the upper compartment of the transwell chambers (Corning Costar Fisher Scientific cat #07-200-158, Pittsburgh Pa.) coated with matrigel (0.7 mg/ml). The lower compartment of the chamber was filled with 200 μl of serum medium and the cells were allowed to migrate for 24 hr. After incubation, the cells were fixed and stained with Hema-3 and quantified as previously described (Mohanam et al. 1993). The migrated cells were quantified as percent invasion.

A549 cells = experiment: Visualization of tumors in lung tissue (H&E sections); type: in vivo, nude mice; conditions: oral/ip, 2.5 and 20 mg/Kg, thirty days daily treatment, FIG. 5
VEGFR = experiment: Down regulation of receptors, western blot in A549 cells; type: cell-based, human; conditions: FIG. 8
Protocol: Levels of Erb-1, Erb-2, Erb-3, Erb-4 and VEGFR were determined by western blot analysis.

In the case of C#Cc1cccc(Nc2ncnc3cc(OC)c(OCCCN4CCOCC4)cc23)c1 [NRC-2694, N-(3-ethynylphenyl)-7-methoxy-6-[3-(4-morpholinyl)propoxy]-4-quinazolinamine], the invasion (H1299 and A549 cells) is reported as “significant decrease in invasion in a dose dependent manner”, the “tumors in H&E stained lung sections” value (A549 cells) is reported as “fared much better than those treated with erlotinib HCl at all dose levels” and the VEGFR levels (VEGFR) is reported as “down regulated”.
